PubChem BioAssay AID1259308, NCATS | 2017
This is an unselected part of about 59,000 reagents. Of all reagents, about 1,510 (2.6%) are marked active. 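Calls use total luciferase alone and ignore viability, so some active siRNAs may act by altering cell number.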 Unmarked entries are inactive. The numbers tell different reagents against one gene apart.

Assay: 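Candidate targets for better recombinant protein yield in mammalian cells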 (primary screen)
Cell system: human HEK293 embryonic kidney cells stably expressing firefly luciferase (HEK-CMV-Luc2-Hygro)
Knock-down reagent: single siRNA against human genes, 0.8 pmol siRNA per well
Timing: 72 h
Measured: 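Reporter luminescence and viable-cell signal on separate replicate plates, given as percent of non-targeting control and median/MAD z-scores, plus per-cell luciferase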
Reading the numbers: total luciferase, z-score and total luciferase, % of control: higher = more reporter protein produced; luciferase per cell, z-score: higher = more reporter output per viable cell; viable cells, % of control: higher = more viable cells
Rule for the call: 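An siRNA counts as active if its total luciferase robust z-score exceeds 3; genes with two or more such siRNAs out of three were retested with fresh siRNAs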
Calls: active = raised luciferase; inactive = no rise

| gene | reagent | total luciferase, z-score | total luciferase, % of control | luciferase per cell, z-score | viable cells, % of control |
| --- | --- | --- | --- | --- | --- |
| CRISPLD1 | 1 | 1.88 | 119 | 2.42 | 70.4 |
| CRISPLD1 | 2 | 0.986 | 102 | 0.746 | 93.2 |
| CRISPLD1 | 3 | -1.12 | 59.6 | -1.69 | 104 |
| CYP4Z1 | 1 | 0.792 | 97.6 | 1.26 | 78.4 |
| CYP4Z1 | 2 | -0.768 | 66.6 | 1.33 | 52.4 |
| CYP4Z1 | 3 | 2.77 | 137 | 1.64 | 99.4 |
| ZNF513 | 1 | 0.221 | 86.3 | 0.446 | 85.7 |
| ZNF513 | 2 | 0.657 | 94.9 | 1.13 | 78.7 |
| ZNF513 | 3 | 0.175 | 85.4 | 0.591 | 81.6 |
| MBOAT1 | 1 | -1.83 | 45.5 | -1.64 | 78.3 |
| MBOAT1 | 2 | -0.419 | 73.5 | -0.413 | 91.6 |
| MBOAT1 | 3 | -0.367 | 74.6 | 0.431 | 74.4 |
| GNAS | 1 | -0.776 | 66.5 | -0.675 | 88.7 |
| GNAS | 2 | -1.54 | 51.3 | -1.57 | 86.6 |
| GNAS | 3 | -1.43 | 53.5 | -1.89 | 98.3 |
| RXFP2 | 1 | -1.09 | 60.2 | -0.402 | 74.7 |
| RXFP2 | 2 | 0.237 | 86.6 | 0.239 | 90.9 |
| RXFP2 | 3 | 2.2 | 126 | 1.27 | 101 |
| GPR150 | 1 | 3.61 (active) | 154 | 2.44 | 90.3 |
| GPR150 | 2 | -0.0894 | 80.1 | -0.298 | 96.8 |
| GPR150 | 3 | -1.04 | 61.2 | -0.163 | 71.4 |
| KLHL1 | 1 | 1.26 | 107 | 1.54 | 79.6 |
| KLHL1 | 2 | -1.13 | 59.5 | -1.05 | 87.6 |
| KLHL1 | 3 | -0.418 | 73.6 | -0.253 | 87.9 |
| GPC1 | 1 | -0.224 | 77.4 | -0.217 | 91.6 |
| GPC1 | 2 | -1.81 | 46 | -0.201 | 54.1 |
| GPC1 | 3 | 0.262 | 87.1 | -0.0973 | 99.9 |
| ANKRD55 | 1 | -0.519 | 71.6 | -0.0255 | 80.5 |
| ANKRD55 | 2 | 1.47 | 111 | 1.06 | 93.8 |
| ANKRD55 | 3 | -0.000286 | 81.9 | -0.428 | 102 |
| LFNG | 1 | 0.558 | 93 | 1.14 | 76.9 |
| LFNG | 2 | -1.21 | 57.8 | -1.6 | 98.5 |
| LFNG | 3 | 0.499 | 91.8 | -0.234 | 109 |
| MND1 | 1 | -1.07 | 60.7 | -1.22 | 93.5 |
| MND1 | 2 | -0.0946 | 80 | 0.0256 | 88.8 |
| MND1 | 3 | -1.32 | 55.5 | -1.59 | 94.2 |
| SLC16A14 | 1 | -0.21 | 77.7 | -0.378 | 95.9 |
| SLC16A14 | 2 | -0.0543 | 80.8 | -0.251 | 96.5 |
| SLC16A14 | 3 | -0.586 | 70.2 | 0.603 | 66.9 |
| UNK | 1 | 2.66 | 135 | 1.94 | 90.4 |
| UNK | 2 | 0.113 | 84.1 | -0.381 | 104 |
| UNK | 3 | -0.00719 | 81.7 | -0.218 | 96.7 |
| SEMA3G | 1 | -0.736 | 67.3 | -0.254 | 80.4 |
| SEMA3G | 2 | 0.489 | 91.6 | 0.836 | 82.2 |
| SEMA3G | 3 | 1.13 | 104 | 0.607 | 99.5 |

Already shown: an excerpt of the list.
| gene | reagent | total luciferase, z-score | total luciferase, % of control | luciferase per cell, z-score | viable cells, % of control |
| --- | --- | --- | --- | --- | --- |
| GPR150 | 1 | 3.61 (active) | 154 | 2.44 | 90.3 |
| GPR150 | 2 | -0.0894 | 80.1 | -0.298 | 96.8 |
| GPR150 | 3 | -1.04 | 61.2 | -0.163 | 71.4 |
| KLHL1 | 1 | 1.26 | 107 | 1.54 | 79.6 |
| KLHL1 | 2 | -1.13 | 59.5 | -1.05 | 87.6 |
| KLHL1 | 3 | -0.418 | 73.6 | -0.253 | 87.9 |
| GPC1 | 1 | -0.224 | 77.4 | -0.217 | 91.6 |
| GPC1 | 2 | -1.81 | 46 | -0.201 | 54.1 |
| GPC1 | 3 | 0.262 | 87.1 | -0.0973 | 99.9 |
| ANKRD55 | 1 | -0.519 | 71.6 | -0.0255 | 80.5 |

More reagents:
| gene | reagent | total luciferase, z-score | total luciferase, % of control | luciferase per cell, z-score | viable cells, % of control |
| --- | --- | --- | --- | --- | --- |
| EMP2P1 | 1 | 0.897 | 99.7 | 0.995 | 85.8 |
| EMP2P1 | 2 | -0.331 | 75.3 | -0.0985 | 86.4 |
| EMP2P1 | 3 | -0.872 | 64.5 | -0.934 | 92.2 |
| CHMP6 | 1 | 0.585 | 93.5 | -0.0908 | 107 |
| CHMP6 | 2 | 2.63 | 134 | 1.55 | 99.7 |
| CHMP6 | 3 | -0.684 | 68.3 | -0.0644 | 77.6 |
| FAM229B | 1 | -0.00909 | 81.7 | 0.129 | 88.3 |
| FAM229B | 2 | -1.06 | 60.9 | -0.292 | 73.5 |
| FAM229B | 3 | -0.282 | 76.3 | 0.609 | 72.6 |
| ACADSB | 1 | -0.868 | 64.6 | -1.4 | 104 |
| ACADSB | 2 | -0.434 | 73.3 | -1.11 | 110 |
| ACADSB | 3 | 0.761 | 97 | 1.11 | 81 |
| WDR6 | 1 | -0.423 | 73.5 | 0.103 | 79.9 |
| WDR6 | 2 | 1.24 | 106 | 0.595 | 102 |
| WDR6 | 3 | 2.59 | 133 | 1.57 | 98.6 |
| TARS1 | 1 | -0.672 | 68.5 | -1.37 | 110 |
| TARS1 | 2 | 0.125 | 84.4 | -0.427 | 105 |
| TARS1 | 3 | -0.543 | 71.1 | -0.518 | 91.1 |
| ZMIZ1 | 1 | 0.0107 | 82.1 | -0.6 | 107 |
| ZMIZ1 | 2 | -0.491 | 72.1 | -0.897 | 102 |
| ZMIZ1 | 3 | -0.224 | 77.4 | -0.758 | 106 |
| TNP2 | 1 | 0.794 | 97.7 | 0.863 | 87 |
| TNP2 | 2 | -1.33 | 55.4 | -0.448 | 69.6 |
| TNP2 | 3 | 3.45 (active) | 151 | 2.67 | 83.2 |
| IMPG2 | 1 | -0.43 | 73.3 | -0.609 | 96.2 |
| IMPG2 | 2 | 0.376 | 89.4 | 0.299 | 92.3 |
| IMPG2 | 3 | 0.106 | 84 | -0.0399 | 94.8 |
| PAN3 | 1 | 1.41 | 110 | 1.04 | 93.3 |
| PAN3 | 2 | -0.0974 | 80 | 0.0991 | 87 |
| PAN3 | 3 | 0.217 | 86.2 | 0.511 | 84.2 |
